Assay results: patent US20250032525A1 (priority 2021, published 2025)
pIC50: −log10 of the molar value.

How the values were obtained:
MDA-MB-231 = experiment: In vitro cytotoxicity (PrestoBlue); settings: Homo sapiens
MCF7 = experiment: In vitro cytotoxicity (PrestoBlue); settings: Homo sapiens

SMILES: COc1cccc2c1C(=O)c1c(O)c3c(c(O)c1C2=O)C[C@@](O)(C(=O)CO)C[C@@H]3O[C@H]1C[C@H](N)[C@H](O)[C@H](C)O1 [DOX, doxorubicin]
- pIC50 (MDA-MB-231): 8.00
- pIC50 (MCF7): 6.89
